Measured values reported in article PMC9512801.
Like-named read-outs stand apart in the source and are kept apart here. No constants are given. Whether binding was seen depends on the method and setting. Binding seen in cells or lysates may run through a third protein. Some results given as binding are weak or reduced against the parent protein; the word gives no strength.

Protein sequences, listed by entry. Tags and fused reporters are not part of them.
UniProt Q14145: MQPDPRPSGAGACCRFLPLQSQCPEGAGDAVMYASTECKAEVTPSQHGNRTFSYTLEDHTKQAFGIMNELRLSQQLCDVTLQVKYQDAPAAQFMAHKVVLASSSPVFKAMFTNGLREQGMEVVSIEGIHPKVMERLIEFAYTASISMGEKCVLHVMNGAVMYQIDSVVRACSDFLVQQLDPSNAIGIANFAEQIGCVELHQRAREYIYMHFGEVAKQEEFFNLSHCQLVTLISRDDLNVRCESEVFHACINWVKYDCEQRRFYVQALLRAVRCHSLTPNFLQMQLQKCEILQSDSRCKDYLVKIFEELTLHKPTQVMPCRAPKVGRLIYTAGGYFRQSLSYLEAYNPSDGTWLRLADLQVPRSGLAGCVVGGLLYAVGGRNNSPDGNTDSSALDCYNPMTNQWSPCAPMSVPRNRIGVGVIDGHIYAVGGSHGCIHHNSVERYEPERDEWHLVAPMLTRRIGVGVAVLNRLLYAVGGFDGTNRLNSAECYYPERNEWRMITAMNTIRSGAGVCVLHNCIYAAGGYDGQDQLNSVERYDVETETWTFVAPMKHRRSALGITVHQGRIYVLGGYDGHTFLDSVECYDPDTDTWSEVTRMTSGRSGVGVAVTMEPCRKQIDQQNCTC
UniProt P14598: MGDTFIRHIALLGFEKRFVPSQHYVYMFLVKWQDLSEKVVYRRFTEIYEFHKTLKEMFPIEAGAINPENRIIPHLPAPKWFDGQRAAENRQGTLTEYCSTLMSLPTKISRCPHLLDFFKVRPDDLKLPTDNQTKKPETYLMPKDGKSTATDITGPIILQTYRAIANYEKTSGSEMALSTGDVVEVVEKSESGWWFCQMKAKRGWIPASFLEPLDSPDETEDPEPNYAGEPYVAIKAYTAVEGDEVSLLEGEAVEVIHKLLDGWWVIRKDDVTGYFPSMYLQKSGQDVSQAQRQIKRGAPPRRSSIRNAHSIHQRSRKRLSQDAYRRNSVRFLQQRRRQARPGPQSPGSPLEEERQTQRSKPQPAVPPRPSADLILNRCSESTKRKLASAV
UniProt P19878: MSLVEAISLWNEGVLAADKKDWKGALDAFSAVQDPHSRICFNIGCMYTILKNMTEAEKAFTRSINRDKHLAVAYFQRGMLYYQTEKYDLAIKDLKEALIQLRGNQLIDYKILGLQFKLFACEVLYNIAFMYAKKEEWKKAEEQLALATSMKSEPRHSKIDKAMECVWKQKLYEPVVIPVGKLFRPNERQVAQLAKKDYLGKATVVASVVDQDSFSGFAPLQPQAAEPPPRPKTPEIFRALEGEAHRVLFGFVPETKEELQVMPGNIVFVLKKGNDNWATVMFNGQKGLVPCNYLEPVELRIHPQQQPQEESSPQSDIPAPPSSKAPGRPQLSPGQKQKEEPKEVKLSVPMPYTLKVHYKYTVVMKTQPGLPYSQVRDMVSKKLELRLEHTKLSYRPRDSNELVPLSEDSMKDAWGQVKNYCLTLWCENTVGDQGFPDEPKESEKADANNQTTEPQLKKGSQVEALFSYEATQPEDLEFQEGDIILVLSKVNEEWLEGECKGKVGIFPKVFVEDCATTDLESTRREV
UniProt Q86TM6: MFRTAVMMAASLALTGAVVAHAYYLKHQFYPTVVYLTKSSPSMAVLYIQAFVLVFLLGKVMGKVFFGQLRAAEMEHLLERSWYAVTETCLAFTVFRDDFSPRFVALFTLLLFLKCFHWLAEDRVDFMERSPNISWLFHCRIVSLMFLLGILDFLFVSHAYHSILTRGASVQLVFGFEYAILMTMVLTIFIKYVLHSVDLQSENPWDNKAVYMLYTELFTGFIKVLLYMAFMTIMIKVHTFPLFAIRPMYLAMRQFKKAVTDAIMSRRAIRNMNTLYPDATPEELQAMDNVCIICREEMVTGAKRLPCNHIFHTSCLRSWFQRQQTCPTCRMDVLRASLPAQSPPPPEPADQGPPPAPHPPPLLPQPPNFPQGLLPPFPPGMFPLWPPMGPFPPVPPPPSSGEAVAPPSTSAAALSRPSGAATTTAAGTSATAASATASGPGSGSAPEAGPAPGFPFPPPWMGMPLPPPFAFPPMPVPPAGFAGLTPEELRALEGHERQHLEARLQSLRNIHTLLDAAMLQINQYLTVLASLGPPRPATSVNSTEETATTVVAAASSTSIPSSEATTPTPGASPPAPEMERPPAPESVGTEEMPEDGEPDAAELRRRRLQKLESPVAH
UniProt Q16236: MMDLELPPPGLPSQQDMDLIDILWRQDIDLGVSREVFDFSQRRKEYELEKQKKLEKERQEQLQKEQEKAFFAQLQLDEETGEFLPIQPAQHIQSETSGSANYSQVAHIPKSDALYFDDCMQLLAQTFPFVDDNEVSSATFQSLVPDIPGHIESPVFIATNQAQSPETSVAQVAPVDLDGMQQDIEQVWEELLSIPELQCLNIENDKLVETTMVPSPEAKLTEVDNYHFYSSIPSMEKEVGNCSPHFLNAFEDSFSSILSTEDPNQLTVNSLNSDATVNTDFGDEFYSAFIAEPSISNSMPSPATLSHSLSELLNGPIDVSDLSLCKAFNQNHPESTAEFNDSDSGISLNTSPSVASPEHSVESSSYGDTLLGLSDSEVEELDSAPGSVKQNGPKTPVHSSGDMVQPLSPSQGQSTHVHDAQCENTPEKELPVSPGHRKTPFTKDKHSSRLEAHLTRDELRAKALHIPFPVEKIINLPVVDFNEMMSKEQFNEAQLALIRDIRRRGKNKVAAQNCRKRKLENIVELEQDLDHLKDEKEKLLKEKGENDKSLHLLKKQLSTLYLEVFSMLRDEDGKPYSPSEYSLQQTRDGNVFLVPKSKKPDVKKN

Tests used:
[1] = biological target: Keap1 (as in the co-immunoprecipitation with SYVN1, Fig. 5E) (UniProt Q14145); test: co-IP; interaction of Keap1 with SYVN1 detected by immunoprecipitation; cells, constructs and precipitating antibody not stated
[2] = biological target: p47^phox (human (endogenous in EA.hy926)) (UniProt P14598); test: co-IP; lysates of endothelial cells (control, ox-LDL/HG, with or without Rb1 pretreatment) incubated with IgG or the primary antibody for 2 h at 4 °C, Protein G PLUS-Agarose, washed with PBS, western blot
[3] = biological target: T1, PGC-1α (human (endogenous in EA.hy926)) (UniProt Q9UBK2); test: as above
T1 sequence: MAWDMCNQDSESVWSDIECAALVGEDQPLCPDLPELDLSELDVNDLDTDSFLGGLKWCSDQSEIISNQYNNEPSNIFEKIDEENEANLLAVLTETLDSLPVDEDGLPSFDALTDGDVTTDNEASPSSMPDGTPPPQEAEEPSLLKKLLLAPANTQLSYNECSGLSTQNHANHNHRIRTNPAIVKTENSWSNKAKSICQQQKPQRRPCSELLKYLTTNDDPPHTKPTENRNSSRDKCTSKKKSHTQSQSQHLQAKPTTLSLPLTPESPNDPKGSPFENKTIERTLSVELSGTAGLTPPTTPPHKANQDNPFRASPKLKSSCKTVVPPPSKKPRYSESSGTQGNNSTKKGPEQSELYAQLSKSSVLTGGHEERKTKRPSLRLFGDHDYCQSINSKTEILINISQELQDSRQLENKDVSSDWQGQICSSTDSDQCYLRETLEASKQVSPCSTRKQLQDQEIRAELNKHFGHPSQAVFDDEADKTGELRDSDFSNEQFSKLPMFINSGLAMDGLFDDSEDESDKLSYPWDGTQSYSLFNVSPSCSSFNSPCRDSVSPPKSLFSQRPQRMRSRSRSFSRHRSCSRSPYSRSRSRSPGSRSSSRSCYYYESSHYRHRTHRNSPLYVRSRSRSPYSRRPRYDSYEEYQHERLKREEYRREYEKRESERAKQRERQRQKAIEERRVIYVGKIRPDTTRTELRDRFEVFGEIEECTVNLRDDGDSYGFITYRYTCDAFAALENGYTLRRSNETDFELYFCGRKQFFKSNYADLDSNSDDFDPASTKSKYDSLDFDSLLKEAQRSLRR

[4] = biological target: p67^phox (human (endogenous in EA.hy926)) (UniProt P19878); test: as above
[5] = biological target: p47^phox (human (endogenous in EA.hy926)) (UniProt P14598); test: as above; remark: listed apart in the source

For “E3 ligase synovial apoptosis inhibitor 1 (SYVN1) (from UniProt Q86TM6 1-617)”, the binding [1] was “binds”.

In the case of “Kelch-like ECH-associated protein 1 (Keap1) (from UniProt Q14145 1-624)”, the binding [2] is reported as “binds”.

“Nuclear factor erythroid 2-related factor 2 (Nrf2) (from UniProt Q16236 1-605)” was tested, and the binding [2] was “binds” and the binding [3] was “binds”.

With p47^phox (from UniProt P14598 1-390) the binding [4] was “binds”.

B1: p22^phox (protein, UniProt P13498 1-195)
chain: MGQIEWAMWANEQALASGLILITGGIVATAGRFTQWYFGAYSIVAGVFVCLLEYPRGKRKKGSTMERWGQKYMTAVVKLFGPFTRNYYVRAVLHLLLSVPAGFLLATILGTACLAIASGIYLLAAVRGEQWTPIEPKPRERPQIGGTIKQPPSNPPPRPPAEARKKPSEEEAAVAAGGPPGGPQVNPIPVTDEVV
With B1 the binding [5] was “binds”.
